Values are the deposited “Percent Effect”, in %.
The controls that fix the scale are not given in the record; negative values are as filed.
The compounds are a random part of those screened.
Two or more numbers in one place are separate tests of the same structure; such repeats can differ widely.

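Viability assay of Plasmodium falciparum sporozoites; the read-out is not stated. The concentration is filed as 10 mM, unlikely as a test dose, so the dose is not known. Higher reads as lower viability (inferred: compounds with an IC50 in retests scored well above the rest). Strong results were mostly tested again. Of about 34,000 compounds tested this way, about 280 (0.84%) reached 50% or more in at least one test.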

CCN1Cc2cc3c(cc2NCCC1=O)OCO3 gave 4.306%. With CCN1CCN(C(=O)c2cc(F)cc3nc(C)c(C)nc23)CC1 the screen gave -5.379%. For CNC(=O)c1cc(NC(=O)NC2CC2)ccc1F the result was 4.563%. For c1cnnc(NCC2CN(CCN3CCCCC3)CCO2)c1 (stereo not given) the result was -11.28%. Result for Cc1cc(CC2COCCN(CCc3ccccc3)C2)ncn1 (stereo not given) was 5.745%. Cc1cnn(CC2CN(CCN3CCCC3=O)CCO2)c1 (stereo not given) gave -2.076%. For CC(C)n1[nH]c(=O)c2c1NC(=O)CC2c1cccc(OC(F)F)c1 (stereo not given) the result was 3.638%. For CN(C)C(=O)CN1CCCC(c2nccnc2-c2cccc(Cl)c2)C1 (stereo not given) the result was -4.299%.

For O=C(CCn1ccccc1=O)N1CCCC(COc2ccc(F)cc2)C1 (stereo not given) the result was -34.91% and -26.51%. With OC(CN1CCC(c2ccn[nH]2)CC1)c1ccc(F)cc1 (stereo not given) the screen gave 10.82%. Cc1csc(CNC(=O)N2CCN(Cc3ccco3)CC2)n1 gave -11.4%. With O=C(C1COCCO1)N1CCN(Cc2ccc3c(c2)CCO3)CC1 (stereo not given) the screen gave -4.808%. Result for Cc1nn(C)c(C)c1C1CCCN1Cc1nc2ccccc2c(=O)[nH]1 (stereo not given) was 5.334%. For COCc1ccccc1CNc1nnc(C)c(C)c1C#N the result was -0.7519%. With CC(CCc1ccccc1)N1CCC(C(=O)NCc2ccccc2)CC1 (stereo not given) the screen gave 7.902%. O=C(NCCc1ccccc1F)NCC(O)c1cccc(F)c1 (stereo not given) read 9.498%.

For [H][C@]12CCN(C(=O)Cc3cccc(OC)c3)CC[C@@]1([H])S(=O)(=O)N(C)C2 the result was 9.846%. For CO[C@H]1CN(Cc2cc(F)ccc2F)CC[C@@]12CCCO2 the result was 5.69%. CCC(O)CN1CCN(C(=O)c2ccc(N(C)C)nn2)CC1 (stereo not given) read 0.2574%. For O=C(NCC1CCOC1)Nc1ccc(Oc2ccc(F)cc2)nc1 (stereo not given) the result was 5.698%. [H][C@@]12CN(Cc3cccc(C(F)(F)F)c3)C[C@]1(C(=O)O)CNC2=O gave -11.72%. For COc1cccc(CNCc2c(C)nn(C)c2N(C)C)c1 the result was 4.571%. For COCCN1C(=O)CC[C@]12CC[C@@H](NC(=O)c1cnccn1)CC2 the result was -7.618%. With CC(=O)N1CCCN(C(=O)NCCOc2ccc3c(c2)OCO3)CC1 the screen gave 0.7842%.

COc1cc(C(=O)NS(=O)(=O)c2cccc(C#N)c2)cc(OC)c1C gave 0.518%. With CCn1cnnc1CNC(=O)N1CCN(c2ccc(OC)cc2)CC1 the screen gave 4.489%. With Cc1ccc(C)n1C(C)C(=O)N1CCCN(Cc2cscn2)CC1 (stereo not given) the screen gave 1.437%. CC(=O)N1CCC(C(=O)N2CCC2c2nc(-c3ccc(C)s3)no2)CC1 (stereo not given) gave 8.855%. Result for O=C(O)C(F)(F)F.[H][C@@]12CCN(C3CCOCC3)C[C@]1([H])O[C@@H](C(=O)N(C)C)C2 was -1.491%. Cn1nc(CNC(=O)c2ccc3c(c2)OCO3)c2c1CCOC2 read -3.671%.

Repeated from the top, 4 entries:

SMILES	percent effect
CCN1Cc2cc3c(cc2NCCC1=O)OCO3	4.306
CCN1CCN(C(=O)c2cc(F)cc3nc(C)c(C)nc23)CC1	-5.379
CNC(=O)c1cc(NC(=O)NC2CC2)ccc1F	4.563
c1cnnc(NCC2CN(CCN3CCCCC3)CCO2)c1 (stereo not given)	-11.28

Source: ChEMBL document CHEMBL3988442, “University of Dundee, Small-Polar-MMV Screening Library” (2021).